Experimental data reported in PubChem BioAssay AID330 (DTP/NCI, 2004).
The list shows only some results of the screen, not a fair sample: it is rich in T/C values a quarter to a half above the control, in often repeated tests (any T/C) and in doses without a T/C. Further doses and runs are listed elsewhere. T/C: endpoint of the treated group in % of that of the vehicle group. Some doses have a count of surviving animals in place of a T/C: the source files T/C as zero there, which appears to mark a toxic dose or a test without result, not a measured value. Some survivor counts are full or nearly so, which does not show that the dose was tolerated: survival well below the control is almost never listed, so the zero probably covers shortened survival too. Counts of survivors are from the toxicity check (mostly the fifth day) where no day follows; animals may have died later. Schedules are NCI's codes, taken here to give the interval after Q, in days (D) or hours (H), and the number of doses after X. Some structures stand for samples that the source files as different forms (salt, stereo form or complex); doses refer to the form tested. Some entries were tested several times; the results are listed from low to high. For survival time, this PubChem deposit counts one and a half times the control or more as active, and values a quarter to a half above the control carry no call in these data; other NCI protocols may use other cut-offs. Counts like (3×) say how often a value occurs here. Some T/C values are followed by the survivors on the day toxicity was checked, most often the fifth; where none is given, no animal had died by that day.

Tested on: P388 leukemia ip, CD2F1 mice, survival T/C
Assay: NCI In Vivo Anticancer Drug Screen. Data for tumor model P388 Leukemia (intraperitoneal) in CD2F1 (CDF1) mice
Conditions: T/C endpoint: median survival time, higher T/C = longer survival
[1] = dose: 100.0 mg/kg/injection, schedule: Q01DX005 (ip), vehicle: Klucel (hydroxypropylcellulose) (HPC)
[2] = dose: 200.0 mg/kg/injection, schedule: Q01DX005 (ip), vehicle: Klucel (hydroxypropylcellulose) (HPC)
[3] = dose: 12.5 mg/kg/injection, schedule: Q01DX009 (ip), vehicle: saline with Tween-80
[4] = dose: 50.0 mg/kg/injection, schedule: Q01DX009 (ip), vehicle: saline with Tween-80
[5] = dose: 120.0 mg/kg/injection, schedule: Q01DX005 (ip), vehicle: saline with Tween-80
[6] = dose: 240.0 mg/kg/injection, schedule: Q01DX005 (ip), vehicle: saline with Tween-80
[7] = dose: 200.0 mg/kg/injection, schedule: Q01DX005 (ip), vehicle: saline with Tween-80
[8] = dose: 50.0 mg/kg/injection, schedule: Q01DX005 (ip), vehicle: saline with Tween-80

Q: For `O=[N+]([O-])c1c(Cl)nc(-c2ccccc2)nc1Cl`, which survivor count (dose: 50.0 mg/kg/injection, schedule: Q01DX005 (ip), vehicle: Klucel (hydroxypropylcellulose) (HPC)) is on record?
A: 0 of 5

Q: And the survivor count [1]?
A: 0 of 5

Q: What about the survivor count [2] of the same compound?
A: 0 of 5

Q: `Cc1c(-c2ccccc2)ccnc1/C=N/NC(=S)Nc1ccccc1` was tested. Which survivor count (dose: 1.56 mg/kg/injection, schedule: Q01DX009 (ip), vehicle: saline) did it give?
A: 4 of 6

Q: And the survivor count (dose: 3.12 mg/kg/injection, schedule: Q01DX009 (ip), vehicle: saline)?
A: 5 of 6

Q: What about the survivor count [3] of the same compound?
A: 5 of 6

Q: What about the survivor count (dose: 100.0 mg/kg/injection, schedule: Q01DX009 (ip), vehicle: saline) of the same compound?
A: 6 of 6

Q: What about the survivor count (dose: 200.0 mg/kg/injection, schedule: Q01DX009 (ip), vehicle: saline) of the same compound?
A: 6 of 6

Q: Which results are given for `c1ccc(-c2nc3ccccc3nc2-c2ccc(-c3ccc(-c4nc5ccccc5nc4-c4ccccc4)cc3)cc2)cc1`?
A: survivor count [3]: 6 of 6; survivor count [4]: 6 of 6

Q: Which results are given for `Cc1cccc(Cl)c1NCCN1CCCC1`?
A: survivor count [5]: 2 of 6; survivor count [6]: 0 of 6

Q: Which survivor count [7] does the source give for `Cc1noc(NS(=O)(=O)c2ccc(N=c3c4ccccc4n(-c4ccccc4)c4ccccc34)cc2)c1C` here?
A: 0 of 6

Q: `NC(=S)N/N=C/c1cccc(CC(O)(C(F)(F)F)C(F)(F)F)n1` was tested. Which survivor count (dose: 50.0 mg/kg/injection, schedule: Q04DX003 (ip), vehicle: saline with Tween-80) did it give?
A: 4 of 6

Q: For `COc1cc2c(cc1O)C(CSC)Cc1cc3c(cc1N(C)CC2)OCO3` (stereo not given), which survivor count [4] is on record?
A: 6 of 6

Q: For `CCN(CCO)CCNc1ccc(C)c2sc3cc(Cl)ccc3c(=O)c12`, which survivor count [2] is on record?
A: 3 of 5

Q: `Cc1c2cc[n+](CCN3CCCCC3)cc2c(C)c2c1[nH]c1ccc(O)cc12` was tested. Which T/C (dose: 6.25 mg/kg/injection, schedule: Q04DX003 (ip), vehicle: suspension in saline) did it give?
A: 140 % of control

Q: And the T/C (dose: 12.5 mg/kg/injection, schedule: Q04DX003 (ip), vehicle: saline)?
A: 145 % of control

Q: And the T/C (dose: 50.0 mg/kg/injection, schedule: Q04DX003 (ip), vehicle: saline)?
A: 143 % of control

Q: What about the T/C (dose: 100.0 mg/kg/injection, schedule: Q04DX003 (ip), vehicle: saline) of the same compound?
A: 143 % of control

Q: And the survivor count (dose: 200.0 mg/kg/injection, schedule: Q04DX003 (ip), vehicle: saline)?
A: 0 of 6

Q: With `COc1cc(C2c3cc4c(cc3C(OC(=O)CCC(=O)O)C3COC(=O)C23)OCO4)cc(OC)c1OC` (stereo not given) as the compound, how does the T/C (dose: 100.0 mg/kg/injection, schedule: Q04DX002 (ip), vehicle: Klucel (hydroxypropylcellulose) (HPC)) read?
A: 132 % of control [5 of 6 alive]

Q: And the survivor count (dose: 200.0 mg/kg/injection, schedule: Q04DX002 (ip), vehicle: Klucel (hydroxypropylcellulose) (HPC))?
A: 2 of 6

Q: And the survivor count (dose: 400.0 mg/kg/injection, schedule: Q04DX002 (ip), vehicle: Klucel (hydroxypropylcellulose) (HPC))?
A: 0 of 6

Q: Which results are given for `CCCCNC(C)[C@]1(O)Cc2c(O)c3c(c(O)c2[C@@H](OC2CC(N)C(O)C(C)O2)C1)C(=O)c1c(OC)cccc1C3=O` (stereo not given in full)?
A: T/C (dose: 0.15 mg/kg/injection, schedule: Q01DX009 (ip), vehicle: water): 127 % of control; T/C (dose: 0.31 mg/kg/injection, schedule: Q01DX009 (ip), vehicle: water): 144 % of control; T/C (dose: 0.62 mg/kg/injection, schedule: Q01DX009 (ip), vehicle: water): 135 and 148 % of control; T/C (dose: 1.25 mg/kg/injection, schedule: Q01DX009 (ip), vehicle: water): 142 % of control; survivor count (dose: 10.0 mg/kg/injection, schedule: Q01DX009 (ip), vehicle: water): 6 of 6; survivor count (dose: 20.0 mg/kg/injection, schedule: Q01DX009 (ip), vehicle: water): 2 of 6

Q: With `COc1ccc2c(c1O)-c1cccc3c1[C@@H](C2)N(CCCl)CC3` as the compound, how does the T/C (dose: 4.0 mg/kg/injection, schedule: Q01DX009 (ip), vehicle: saline) read?
A: 126 % of control

Q: What about the T/C (dose: 8.0 mg/kg/injection, schedule: Q01DX009 (ip), vehicle: Klucel (hydroxypropylcellulose) (HPC)) of the same compound?
A: 129 % of control

Q: And the T/C (dose: 12.5 mg/kg/injection, schedule: Q04DX003 (ip), vehicle: other)?
A: 134 % of control

Q: And the survivor count (dose: 16.0 mg/kg/injection, schedule: Q01DX009 (ip), vehicle: Klucel (hydroxypropylcellulose) (HPC))?
A: 3 of 6 and 5 of 6

Q: What about the T/C (dose: 16.0 mg/kg/injection, schedule: Q01DX009 (ip), vehicle: saline) of the same compound?
A: 128 [5 of 6 alive] and 132 % of control

Q: And the T/C (dose: 25.0 mg/kg/injection, schedule: Q04DX003 (ip), vehicle: other)?
A: 125 % of control

Q: What about the survivor count (dose: 32.0 mg/kg/injection, schedule: Q01DX009 (ip), vehicle: Klucel (hydroxypropylcellulose) (HPC)) of the same compound?
A: 0 of 6 and 1 of 6

Q: What about the survivor count (dose: 32.0 mg/kg/injection, schedule: Q01DX009 (ip), vehicle: saline) of the same compound?
A: 6 of 6

Q: What about the survivor count (dose: 64.0 mg/kg/injection, schedule: Q01DX009 (ip), vehicle: saline) of the same compound?
A: 1 of 6 and 2 of 6

Q: What about the survivor count (dose: 100.0 mg/kg/injection, schedule: Q04DX003 (ip), vehicle: other) of the same compound?
A: 0 of 6 and 6 of 6

Q: How did the survivor count [1] turn out when `NCCSSc1ccccc1[N+](=O)[O-]` was run?
A: 3 of 5

Q: What about the survivor count [2] of the same compound?
A: 0 of 5

Q: For `O=C1NC(=S)NC(=O)C1=Cc1cccc2cc3ccccc3cc12`, which survivor count [2] is on record?
A: 6 of 6

Q: `CC(=O)Oc1cccc2c1CC(C[Se]c1ccccc1)C(=O)O2` (stereo not given) was tested. Which survivor count [7] did it give?
A: 6 of 6

Q: Which results are given for `CCN(CC)CCNc1ccc(C)c2sc3ccc(OC)cc3c(=O)c12`?
A: T/C (dose: 100.0 mg/kg/injection, schedule: Q01DX009 (ip), vehicle: saline with Tween-80): 145 and 147 % of control [5 of 6 alive]; survivor count (dose: 200.0 mg/kg/injection, schedule: Q01DX009 (ip), vehicle: saline with Tween-80): 6 of 6

Q: How did the survivor count (dose: 60.0 mg/kg/injection, schedule: Q01DX005 (ip), vehicle: Klucel (hydroxypropylcellulose) (HPC)) turn out when `Clc1ccc(Nc2c3ccccc3nc3c2cnn3-c2ccccc2)cc1` was run?
A: 6 of 6

Q: For `COC(=O)C1=COC(OC2OC(CO)C(O)C(O)C2O)C2C(C)C(O)C(OC(=O)/C=C/c3ccc(OC)cc3)C12` (stereo not given), which survivor count (dose: 18.75 mg/kg/injection, schedule: Q01DX005 (ip), vehicle: Klucel (hydroxypropylcellulose) (HPC)) is on record?
A: 6 of 6

Q: Which survivor count [5] does the source give for `CC(C)(C)C(=O)Oc1c2ccccc2cc2ccccc12` here?
A: 6 of 6

Q: And the survivor count [6]?
A: 6 of 6

Q: Which results are given for `CCC/C(=N\NC(=S)N1CCN(c2ccccn2)CC1)c1ccccn1`?
A: T/C (dose: 25.0 mg/kg/injection, schedule: Q01DX005 (ip), vehicle: saline with Tween-80): 126 % of control (2×); T/C [8]: 126 % of control; survivor count [8]: 3 of 6; survivor count (dose: 100.0 mg/kg/injection, schedule: Q01DX005 (ip), vehicle: saline with Tween-80): 0 of 6; survivor count [7]: 0 of 6
